# Experimental data as given in publication PMC7646526.
# Amino acid sequences for entries named in this document (tags omitted). A change or cut given only in a name is not applied to a line headed by its entry.
# UniProt P70731: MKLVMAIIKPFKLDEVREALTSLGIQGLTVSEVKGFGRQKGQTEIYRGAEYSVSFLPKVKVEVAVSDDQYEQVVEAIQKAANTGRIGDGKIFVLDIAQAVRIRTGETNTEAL
# UniProt A0A0N7I7C7: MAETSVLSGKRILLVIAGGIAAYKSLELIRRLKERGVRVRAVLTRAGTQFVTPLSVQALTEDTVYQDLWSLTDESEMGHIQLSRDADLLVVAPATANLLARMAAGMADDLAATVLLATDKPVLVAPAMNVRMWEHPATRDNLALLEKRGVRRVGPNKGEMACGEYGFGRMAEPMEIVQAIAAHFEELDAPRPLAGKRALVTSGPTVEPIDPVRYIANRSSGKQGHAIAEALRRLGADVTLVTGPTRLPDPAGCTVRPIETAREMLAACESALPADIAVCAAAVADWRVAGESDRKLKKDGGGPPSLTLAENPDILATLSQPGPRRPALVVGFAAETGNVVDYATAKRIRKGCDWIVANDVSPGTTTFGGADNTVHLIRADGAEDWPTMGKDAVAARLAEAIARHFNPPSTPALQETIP
# UniProt A0A0N7I832: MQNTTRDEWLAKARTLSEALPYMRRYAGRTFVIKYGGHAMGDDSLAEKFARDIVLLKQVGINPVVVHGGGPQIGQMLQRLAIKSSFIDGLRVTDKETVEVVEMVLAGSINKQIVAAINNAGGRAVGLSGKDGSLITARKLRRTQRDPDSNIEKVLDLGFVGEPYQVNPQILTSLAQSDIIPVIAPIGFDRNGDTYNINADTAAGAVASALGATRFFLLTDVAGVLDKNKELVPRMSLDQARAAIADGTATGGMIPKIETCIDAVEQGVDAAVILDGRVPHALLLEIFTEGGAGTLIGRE
# Target: His-tagged GlnZ (A. brasilense) (UniProt P70731)
# Experiment: affinity purification with mass spectrometry; GlnZ ligand fishing: His-GlnZ held on Ni2+ columns (HiTrap chelating or Protino Ni-IDA; in one of six assays, ATP4, 3×-FLAG GlnZ on anti-FLAG M2 magnetic beads); A. brasilense 2812 soluble protein extract loaded in 50 mM Tris-HCl pH 8, 100 mM KCl, 5 mM MgCl2, 1 mM ATP or ADP; eluted with 1 mM ATP + 1.5 mM 2-OG; label-free LC-MS/MS against columns without GlnZ; only the target purified
row,binding,Molecule
1,binds,CoaBC (G8AF97) (from UniProt A0A0N7I7C7) (enzyme)
2,binds,N-acetyl-L-glutamate kinase (NAGK) (G8AI64) (from UniProt A0A0N7I832 1-299) (enzyme)

# Target: His-tagged GlnZ (A. brasilense) (UniProt P70731)
# Experiment: as above
# Remark: another data set of the same source
row,Molecule,binding
1,"BCCP (biotin carboxyl carrier protein) (protein, UniProt A0A0P0EWD9 1-149) MASFDIDGDLVRKLADLLRETGLSEIEFAEGEKRIRVTRPTAAQAVAVHAPVAAPAPATAPAAAPAGKPASHPGAVTSPMVGTAYAAAEPGGTPFVRVGDTVKAGQTVLIIEAMKVMNPIKAPRGGTVVEILISDSQPVEFGEVLMIIE",binds
2,"Ade (enzyme, UniProt A0A0P0F3K4 1-569) MAVTRDELKTRIGQALGETKADLVIKNTRFLNVVTGETAAGDIALCGDRIVGTYESYDGTEEIDGSGLTVVPGFIDTHVHCESTCVTPMEFDRCVLPRGTTTAICDPHEICNVLGDKGLRYFLDCAEGTALDLRVQLSSCVPATELETSGARLEAADLLRHKDHPKVLGLAEFMNFPGVFHKVDGVLEKLAAFDGRHIDGHAPLLSGRELNAYLSCGIRNCHETTSAPEAMEKLRKGMQVLIRDGSVSKDVHALAPVIQPETSPFLGFCTDDRNPLDIAEEGHMDHLIRSAIRLGAPLSHVYRAATWSAARGFGLFDRGLIAPGQRADLVLLDDLEDCAVNRVIRNGRVVSPETFAGRPAVSPVGLRSVKLHPVTAEDFAVPARGSVQSVIGVLPGKIITAHLRLEVPAKDGKLVADPDRDILKICVFARHGTNQNVGRGFASGFHFREGALASSVGHDSHNICVVGASDEDMAIAVNRLIELQGGFVAVRNGKVVGELALPLAGLMSLEPFETVERHLRSLRASVKEMGCPLAEPFLQLAFLPLPVIPHLKITDRGLVDVDKFAMVEA",binds
3,"ATase, glutamine synthetase adenylyltransferase (A7Y9V0) (enzyme, UniProt A0A0P0F2U7 1-1005) MTTTLPKPFDTGLAERGLERWRAEAANAADNDGNNDGDSTGDALRAWAEAYADSAEGRALIDAVCGNSPYLGQILTRELPFVREMVTRGYDDAFATLLRRLEADCAEERNIDRLMTALRIAKRRAALLIAIADITGAWELEAVTGALSDIAETSVRMAANHLLRRAAEAGTLTLPEPQRPWVGSGLIVLGMGKLGARELNYSSDIDLIVLYDDAVVQTPQPDNLARTFIRIARDLVRIMDERTKDGYVFRTDLRLRPDPGATPLAVSVSAAEIYYGSVGQNWERAAMIKARPIAGDPEAGAHFLRFLEPFVWRRHLDFAAIQDIHSIKRQINAHKGHREVTVNGHDIKVGRGGIREIEFFAQTQQLIFGGRDIRVRIAPTLLANKALCAVGRVPEAAVEELEEAYRFLRRVEHRIQMTDDRQTHQIPADDEGVAHLATFLGYAQVEDFRADLLAQLGRVEDRYAELFEEAPSLSGPGNLVFTGTDDDPGTVKTLAGMGYRDPSRVIAVVSTWHRGRYRSTRSGRARELLTELVPAMLNELAKTPAPDDALVKFDSFLERLPAGVGLFSLFIANPWLLALVAEIMGTAPQLAETLSRNPSLLDAVLSPDFFDPLPDAAGLTPEYQRFIAGAHNFEDVLTLSRRWTNDQRFRAGAHILRGITDGDHCGPFLADLADVVVPELAARVEEEFATRHGRIPGGAWVVVAMGKLGSRQLTITSDIDLIVVYEVPPGTRQSDGTKPLAPNEYYIKLTQRLTNAITAPMADGRLYEVDMRLRPSGNAGPLATALDAFTAYQAKDAWTWEHMALTRARVIGGDPPLGHKVESAIRGVLTGPRDPAKVLRDVADMRRRIDKEFGTANPWNVKYARGGLIDIEFTAQYLQLRHGHAHPEILSIATSRALLNAAAAGLLAPEVAEELAATLKLWRRVQGFLRLTTDGVLDPRQVSPTLREGLSRAAFPDEEPAVDFAALDSRIRDIAARAHRHFVALVEEPASRLPPPETNEEAKLP",binds

# Second part, the molecule after the results:
row,binding,Molecule
1,binds,"Rho factor (G8AG60) (protein, UniProt A0A560CHF0 1-418) MHLQELKCKSPAELLAFAEELQIENASTLRKQDMMFAILKQLAENDVPIYGDGVLEVLQDGFGFLRSPEANYLPGPDDIYVSPSQVRRFSLRTGDTVEGQIRAPKDGERYFALLKVNTINFDAPDKVRHRINFDNLTPLYPEERLRMEVDDPTKKNYTGRIIDLVAPLGKGQRGLIVAPPRTGKTVMLQNIAHSIATNHPEAYLIVLLIDERPEEVTDMARSVRGEVISSTFDEPATRHVQVAEMVIEKAKRLVEHKRDVVILLDSITRLARAYNTVVPSSGKVLTGGVDANALQRPKRFFGAARNIEEGGSLTIIATALIDTGSRMDEVIFEEFKGTGNSEIVLDRKLSDKRTFPAIDISKSGTRKEELLVDKGTISKMWILRRILMPMGVTDAVDFLVDKLKHTKSNSEFFESMNQ"
2,binds,"RNase R (enzyme, UniProt A0ABU4P7I5 1-766) MARTPLNDTPRRSGSFPDKDMVLSFIRSSTTPVGKRELARAFKLSGSDDRERLKALLKELEADGSVERGRNKRVAPPQSLPEVAVLEVTGTDADGEVTARPVTWTGEGNPPRIFLMPERKGHPTLGTGDRVLAKLNRINDRLYEARTIRRLDGTVGRVLGVYYPAADGGRIVPTDKRNKTELLVLPANRNDAEPGELVLADLLPAARLGLPQARVAERLGHTAEPRAVSLIAIHTHGLPTDFPPAALREASHAAVPSLTGRTDLRHIPLVTIDGADARDFDDAVWAEPDPDPANQGGWHLLVAIADVAFYVRPNSALDRTAFERGNSVYFPDRVVPMLPEALSNDLCSLRPQEDRACVAAHLWIDRYGALLRHRFVRGLMRSAARLTYEQVQAARDGVPDEATAPLLETVIAPLYGAFACLWAARQRRGTLELDLPERRVRLDERGRVAEIAPRERLDSHRLIEEFMICANVAAADSLERAGMPGLFRVHDQPSLDKQETLREFLTGIGYSLPRVPRLTPAHFTAVLDRAAGTAESQLVSEVILRSQSQAEYSPENIGHFGLSLDRYAHFTSPIRRYADLIVHRALIRAHGLGPGGLDDAAMAGLTDIGEHISMTERRAATAERDAIDRFTAAFLADRVGALFTGRISGVTRFGLFIRLDENGADGLIPASTLPDDQYEHDERAHALVGQRTGRSYRLGAAVKVVLMEADPLTGSTLFALPRAEGASAGDFVGSTDHPLQSSHPDRPPRSARFAGRATQKQRKRGR"
3,binds,"RPH, RNase PH (G8AGG4) (enzyme, UniProt A0A4D8QJU4 1-239) MRPSGRAHDQLRTISLEPHFSKHAEGSCLVRFGDTHVLCTASVDEGVPRFLKNTGLGWVTAEYGMLPRSTHSRTDREAAKGKQSGRTQEIQRLIGRALRAVTDRAAMGEKQIKIDCDVIQADGGTRTAAITGSFVALHLAFQHLMQIGALKTMPLTDHVAAVSCGIYKNTSVLDLDYAEDSTAQADANFVLTGQGGIVEVQGTAEERPFSEPQFMELLALARKGIDELVALQKAAIAVK"
4,binds,"TrkA (G8AQ29) (protein, UniProt A0A0P0EHA2 1-458) MKVIVCGAGQVGSNIARYLASEGNNVTVIDHSPELIQRISDTLDVQAMVGHASHPDVLEAAGAGETDMIIAVTQIDEINMVACEVAHALFKVPTKIARVRNQSYLKPIWADLFSRDHMPIDVIISPEIAVARAIARRLQVPGAFDMIPLADGKVRVVGVLCTETCPVLHTPLRQLTGLFPDLGLEVVAIIRNDRSFIPGGDDQMLPGDEVYFACDNRHLNRAMSAFGHEEVEARRIIILGGGNIGLCLAEELEAKYPHVTARIIEMNRSRAQYVAQRLSRTMVLHGDGLDPEILEEANVRATETVVAVTNDDEGNILSSLLAKRHGAKRAITLINKASYTSLVSPLGIDAVVSPRAITVSNILQHVRRGRIRAVHSLRDGFAEVIEAEALETSAVVNTPLREVKLPSGVIVGAIVRGDEVIVPRPATVIRPKDRVVILATAGQVKKVEKMFAVRLEFF"

# Results are given in words; binding and its absence hold for the method and conditions named. Binding seen in cells or lysates may run through a third protein. A yes stands for co-enrichment or nearness to the bait. Other partners may have been found.
